Assay results as given in PubChem BioAssay AID493014 (National Center for Advancing Translational Sciences (NCATS), 2011).
The other results are listed elsewhere or left out. The main result of the screen is listed elsewhere. These columns were measured beside it and carry no call. Most of these compounds were active or inconclusive in the main read-out, so they are no random draw. The note in brackets gives the kind of curve behind each potency; many fits are weak.

Experiment: qHTS Assay to Find Inhibitors of Chronic Active B-Cell Receptor Signaling
Details: ABC-DLBCL IkBa-CBG/CBR reporter, luminescence ratio (green luciferase fused to IkBa over red control in TMD8 lymphoma cells), 4 h
Procedure, shortened: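 Doxycycline induced both beetle luciferases in TMD8 lymphoma cells; IKK-driven degradation limits the IkappaBalpha-fused green signal, while red luminescence normalises for cell number and nonspecific effects. Compounds tested up to 46 uM, 4 hrs.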

[1] = measured here: CBR red luminescence, cell number
[2] = measured here: IkBa-CBG green luminescence

SMILES | AC50 [1] | AC50 [2]
COC(=O)c1ccc(COC(=O)CNC(=O)CNC(=O)c2ccc(C)cc2)cc1 | 35.5 µM [rising, single point] | –
COc1ccc(CN(C(=O)c2cc3ccccc3oc2=O)C2CCCCC2)cc1OC | 29.1 µM [falling, single point] | –
COc1cc(/C=N/O)cc(Cl)c1OC | 1.03 µM [rising, full curve, poor fit] | –
CCc1ccc(N=Nc2ccc(O)c3[nH]cnc23)cc1 | 1.16 µM [rising, full curve] | 25.9 µM [falling, single point]
O=C(COC(=O)c1ccc(O)cc1O)Nc1cccc2ccccc12 | 3.66 µM [falling, partial curve] | –
COc1ccc(/C=C\C(=O)c2c(O)ccc3c(C)cc(=O)oc23)cc1 | 23.1 µM [falling, single point] | –
COc1ccc(-c2nc3scc(CCNS(=O)(=O)c4cccs4)n3n2)cc1 | 35.5 µM [falling, single point] | –
CN1CCN(C(=O)c2cc(COc3c(F)cccc3F)on2)CC1c1ccccc1 (stereo unspecified) | 35.5 µM [falling, single point] | 17.8 µM [rising, single point]
CO/N=C/c1ccc(N2CCN(C(=O)c3cccc(C(F)(F)F)c3)CC2)c([N+](=O)[O-])c1 | 20.6 µM [falling, partial curve, poor fit] | –
CCn1ncc(C2=NOC(C(=O)NCc3ccc(Cl)cc3)C2)c1C (stereo unspecified) | 7.08 µM [rising, full curve] | 8.91 µM [falling, partial curve]
Cc1cc(SCC(=O)N/N=C/c2ccc(C(=O)O)cc2)nc2ccccc12 | 7.08 µM [falling, partial curve, poor fit] | –
COc1ccc(-c2nc(-c3ccccc3OC)no2)cc1OC | 14.1 µM [falling, partial curve, poor fit] | –
CCOC(=O)/C(=N/Nc1ccc(C)cc1)S(=O)(=O)c1ccc(Cl)cc1 | 0.146 µM [falling, full curve, poor fit] | –
COC(=O)c1ccc(/C(O)=C(\C#N)c2nc3ccccc3s2)cc1 | 0.562 µM [falling, full curve, poor fit] | –
COc1cccc(N(CC(=O)O)S(=O)(=O)c2ccccc2)c1 | 0.184 µM [falling, full curve, poor fit] | –
CCOc1ccc(NC(=S)Nc2ccc(OC)cc2)cc1 | 22.4 µM [rising, partial curve, poor fit] | –
COc1cc(/C=N\Nc2nc3ccccc3o2)cc(OC)c1OC | 14.6 µM [falling, single point] | 3.26 µM [rising, full curve, poor fit]

Complete entries as entered above. Order of values: AC50 [1] | AC50 [2]
O=C(COC(=O)c1ccc(O)cc1O)Nc1cccc2ccccc12 in the list: 3.66 µM [falling, partial curve] | –
CCc1ccc(N=Nc2ccc(O)c3[nH]cnc23)cc1 in the list: 1.16 µM [rising, full curve] | 25.9 µM [falling, single point]
